Test results as given in patent publication US11273136B2, “Method for increasing protein content in milk of lactating cows” (neopharma Japan Co., Ltd., priority 2019, dated 2022).

Tested on: lactating Holstein milk cows
Experiment: Crossover feeding test of 5-ALA-supplemented total mixed ration on milk yield and milk composition of lactating cows
Type: in vivo
Description: Effects of ALAs on the milk composition of a lactating cow was studied. Six lactating Holstein milk cows (average body weight 698±18 kg, average milk production 24.1±1.6 kg/d, average days-in-milk (DIM) 209±34 days, and average number of lactations 2.9±0.4) were placed in a free stable. After a 7-day grace period, 6 cows were randomly assigned to section A and section B (each group n=3). Section A had, after a grace period, an ALA administration period of 14 days (ALA Consumption Group A), with an adjustment period of 7 days interposed, followed by an ALA non-administration period of 14 days (Control Group A), whereas Section B had, after a grace period, an ALA non-administration period of 14 days (Control Group B), with an adjustment period of 7 days interposed, followed by an ALA administration period of 14 days (ALA Consumption Group B), whereby the test was carried out by the crossover method. A total mixed ration (TMR) (see Table 2) which had been used was fed during the above grace period, adjustment period and ALA non-administration period, and a feed to which 10 mg of 5-ALA was added per kg of the total mixed ration (TMR) was fed during the ALA administration period.
5-ALA was provided by neopharma Japan Co., Ltd. Each feed and water were available at any time but feed consumption of each group on a dry base was 23.4 kg/day per cow in the control groups and 23.6 kg/day per cow in the ALA groups. Thus, the daily consumption of 5-ALA in the ALA groups was 0.329.6 mg to 0.347.1 mg/kg b.w./day. Each of the milk cows was milked at 09:00 and 17:00 and allowed to consume each feed at any time after milking.
Amounts of Milking from each cow were automatically recorded everyday by an auto milk recorder (manufactured by ORION MACHINERY CO., LTD.). Additionally, for each group of Section A and Section B, during the last 2 days in the ALA administration period of 14 days and the non-administration period of 14 days, 50 to 100 mL of milk was collected twice a day from cows of each period to use as milk samples for data analysis. The milk samples were preserved at −30° C. until the milk composition and the like were analyzed.
Using the above milk samples collected from each of the cows, the milk composition such as milk fat, proteins, casein, lactose, total solid (TS), solid not fat (SNF), milk urea nitrogen (MUN) and somatic cell count (SCC) was measured using a […] infrared spectroscopy (Milko-Scan, 133N, manufactured by Foss Electric, Hill-erod (Denmark)). Data of each cow were calculated as an average value of 4 milk samples collected for 2 days. […] The data were analyzed statistically as a crossover design using the mixing procedure of SPSS (PASW Statistics 18.0, manufactured by IBM). […]

[1] = 10 mg 5-ALA per kg TMR, 14 days, milk of last 2 days, ± standard error

SMILES: NCC(=O)CCC(=O)O [5-ALA, 5-aminolevulinic acid]
- MUN (milk urea nitrogen) [1]: 14.87 ± 2.56 mg/dL
- Somatic cell count [1]: 7.04 ± 0.62 ×10^3 cells/mL
- Feed consumption on a dry base (ALA groups, feed available at any time): 23.6 kg/day per cow
- MUN compared with Control Groups (feed to which 5-ALA was added): no particular differences
